From PubChem BioAssay AID1035475 (Broad Institute, 2014)
The shares of active, inactive and inconclusive entries below differ from those in the screen. Calls of active or inactive are those of the source.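 The calls were made as follows: active = fluorescent signal drops by 40% or more, counted as a hit; inconclusive = no clear call, values can overlap the other calls; inactive = the rest, including any activity in the opposite direction.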

Experiment: inhibitors of fibronectin matrix deposition, dose response, AH1F cells, Alexa488-FN fluorescence, cherry-picks (AID 1035475);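 also: AH1F fibroblasts incorporating labeled fibronectin into their extracellular matrix; 0% = neutral control wells and -100% = wells without labeled fibronectin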
Details: AH1F fibroblasts, overnight; at 35 µM (top of the series)

Which activity change, negative = inhibition does the source give for N#Cc1ccc(-c2ccc3c(c2)[C@H]2[C@H](CCN2S(=O)(=O)c2cccc(F)c2)[C@@H](CO)N3)cc1 here?
Its activity change, negative = inhibition is inconclusive: -8.44%.

With COc1ccc(CCNC(=O)C2CCN(Cc3nc(-c4ccccc4F)oc3C)CC2)cc1OC as the molecule, how does the activity change, negative = inhibition read?
Its activity change, negative = inhibition is inconclusive: -32.5%.

Which activity change, negative = inhibition does the source give for CC(C)(C)[S@@](=O)N1Cc2cc(C(=O)NCc3ccccc3F)nc(-c3cccc(-c4cncnc4)c3)c2[C@H]1CCO here?
The activity change, negative = inhibition was inconclusive: -9.56%.

With CCCCOc1ccc(C(C)NC(=O)C2CCCN(S(=O)(=O)CCC)C2)cc1 (stereo not given) as the molecule, how does the activity change, negative = inhibition read?
The activity change, negative = inhibition was inactive: 4.21%.

Which activity change, negative = inhibition does the source give for Cc1cccc(NC(=O)c2ccc(C3SCC(=O)N3CCc3ccccc3)cc2)c1 (stereo not given) here?
Its activity change, negative = inhibition is inconclusive: -37%.

With O=S(=O)(c1cccc(F)c1)N1CC[C@@H]2[C@H]1c1cc(-c3cccc(F)c3)ccc1N[C@@H]2CO as the molecule, how does the activity change, negative = inhibition read?
Its activity change, negative = inhibition is inactive: 10.5%.

With C[C@H]1CN([C@@H](C)CO)C(=O)c2cc(-c3ccccc3)cnc2O[C@H]1CN(C)Cc1ccccc1 as the molecule, how does the activity change, negative = inhibition read?
Its activity change, negative = inhibition is inactive: 34.5%.

For N#C[C@H]1[C@H](c2ccccc2C2=CCCCC2)[C@H](CO)N1S(=O)(=O)c1ccccc1, which activity change, negative = inhibition is on record?
The activity change, negative = inhibition was inactive: 23.3%.

For CN(C)c1ccc(-c2ccnc3c2CC(C)(C(=O)NCC2CC2)O3)cc1 (stereo not given), which activity change, negative = inhibition is on record?
The activity change, negative = inhibition was inconclusive: -32.6%.

For CCOc1ccccc1NC(=O)c1c(NC(=O)CCC(=O)O)sc2c1CCCCC2, which activity change, negative = inhibition is on record?
Its activity change, negative = inhibition is inactive: -7.79%.

Which activity change, negative = inhibition does the source give for COc1ccccc1CNc1nc(NCc2cnc(C)cn2)c2sccc2n1 here?
Its activity change, negative = inhibition is inconclusive: -45.7%.

With CCN(Cc1ccncc1)C(=O)c1ccc2c(c1)S(=O)(=O)c1ccccc1C2=O as the molecule, how does the activity change, negative = inhibition read?
Its activity change, negative = inhibition is inactive: -11.4%.

With N#Cc1ccc(-c2ccc3c(c2)[C@@H]2[C@@H](CCN2S(=O)(=O)c2cccc(F)c2)[C@@H](CO)N3)cc1 as the molecule, how does the activity change, negative = inhibition read?
Its activity change, negative = inhibition is inconclusive: -14.7%.

For CC(C)NC(=O)N(C)C[C@H]1Oc2ccc(NC(=O)CCN3CCOCC3)cc2C(=O)N([C@H](C)CO)C[C@@H]1C, which activity change, negative = inhibition is on record?
Its activity change, negative = inhibition is inactive: 10.8%.

With CS(=O)(=O)N1CCN(c2ccc(NC(=O)c3ccc([N+](=O)[O-])o3)cc2)CC1 as the molecule, how does the activity change, negative = inhibition read?
Its activity change, negative = inhibition is inconclusive: -52.7%.

For C[C@H](CO)N1C[C@H](C)[C@@H](CN(C)Cc2ccccc2)Oc2ncc(-c3ccccc3)cc2C1=O, which activity change, negative = inhibition is on record?
Its activity change, negative = inhibition is inconclusive: -46.8%.

Which activity change, negative = inhibition does the source give for CN(C)C(=O)c1ccc(-c2ccc3c(c2)[C@@H]2[C@@H](CCN2C(=O)c2ccc(F)cc2)[C@H](CO)N3C)cc1 here?
The activity change, negative = inhibition was inactive: 38.9%.

Which activity change, negative = inhibition does the source give for C[C@@H]1CN([C@@H](C)CO)C(=O)c2cc(-c3ccccc3)cnc2O[C@H]1CN(C)C(=O)c1cccc(F)c1 here?
The activity change, negative = inhibition was inconclusive: 17.4%.

For N#C[C@@H]1[C@H](c2ccccc2C2=CCCCC2)[C@@H](CO)N1S(=O)(=O)c1ccccc1, which activity change, negative = inhibition is on record?
Its activity change, negative = inhibition is inactive: 59.9%.

With CC(C)(C)c1cc(Cl)c(O)c(NC(=S)NC(=O)c2cccnc2)c1 as the molecule, how does the activity change, negative = inhibition read?
Its activity change, negative = inhibition is inconclusive: -37.3%.

For Cc1cccc(N2CCN(S(=O)(=O)c3cn(C)cn3)CC2)c1C, which activity change, negative = inhibition is on record?
Its activity change, negative = inhibition is inconclusive: -19.5%.

For COCC(=O)Nc1ccc2c(c1)C(=O)N(C)[C@H]1CC[C@@H](CC(=O)NCc3ccccc3Cl)O[C@H]1CO2, which activity change, negative = inhibition is on record?
The activity change, negative = inhibition was inconclusive: 15%.

For Cc1ccc(-c2nc3ncccc3o2)cc1NC(=O)c1ccco1, which activity change, negative = inhibition is on record?
Its activity change, negative = inhibition is inconclusive: -39.9%.

With Cc1c(NC(=O)c2ccc3nsnc3c2)cccc1[N+](=O)[O-] as the molecule, how does the activity change, negative = inhibition read?
The activity change, negative = inhibition was inconclusive: -19.5%.

With CCOC(=O)c1nnn(-c2ccc(OC)cc2)c1N as the molecule, how does the activity change, negative = inhibition read?
The activity change, negative = inhibition was inconclusive: -23.1%.
